Holding throughout (assay): DAPPL (digital affinity profiling via proximity ligation, sequencing)
Holding throughout (conditions): 10 mM Tris-HCl pH 7.5, 50 mM NaCl, 1 mM DTT, 4% glycerol, room temperature, 30 min; GST-TFs on glutathione beads, 16-mer random dsDNA library, 0.1% …; high values mean tight binding; double strand, one strand shown; scale: fold enrichment (6-mer frequency, TF over GST control)

Chains of the proteins cited; added tags and fusions are not shown. Lines headed by an entry give the natural chain unless they say otherwise; changes in a name come on top.
UniProt P50549: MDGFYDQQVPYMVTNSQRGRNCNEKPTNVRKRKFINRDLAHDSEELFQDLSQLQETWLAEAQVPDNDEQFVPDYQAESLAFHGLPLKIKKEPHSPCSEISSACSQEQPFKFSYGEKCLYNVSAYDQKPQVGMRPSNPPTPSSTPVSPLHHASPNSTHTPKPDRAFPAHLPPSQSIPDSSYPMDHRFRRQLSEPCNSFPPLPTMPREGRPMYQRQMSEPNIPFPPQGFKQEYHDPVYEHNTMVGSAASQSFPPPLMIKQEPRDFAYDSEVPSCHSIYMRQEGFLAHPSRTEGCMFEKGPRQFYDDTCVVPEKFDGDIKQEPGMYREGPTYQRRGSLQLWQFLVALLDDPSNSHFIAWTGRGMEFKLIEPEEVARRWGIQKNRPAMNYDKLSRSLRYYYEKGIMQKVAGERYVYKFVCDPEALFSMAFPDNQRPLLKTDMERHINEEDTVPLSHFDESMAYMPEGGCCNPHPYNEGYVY
UniProt P32519: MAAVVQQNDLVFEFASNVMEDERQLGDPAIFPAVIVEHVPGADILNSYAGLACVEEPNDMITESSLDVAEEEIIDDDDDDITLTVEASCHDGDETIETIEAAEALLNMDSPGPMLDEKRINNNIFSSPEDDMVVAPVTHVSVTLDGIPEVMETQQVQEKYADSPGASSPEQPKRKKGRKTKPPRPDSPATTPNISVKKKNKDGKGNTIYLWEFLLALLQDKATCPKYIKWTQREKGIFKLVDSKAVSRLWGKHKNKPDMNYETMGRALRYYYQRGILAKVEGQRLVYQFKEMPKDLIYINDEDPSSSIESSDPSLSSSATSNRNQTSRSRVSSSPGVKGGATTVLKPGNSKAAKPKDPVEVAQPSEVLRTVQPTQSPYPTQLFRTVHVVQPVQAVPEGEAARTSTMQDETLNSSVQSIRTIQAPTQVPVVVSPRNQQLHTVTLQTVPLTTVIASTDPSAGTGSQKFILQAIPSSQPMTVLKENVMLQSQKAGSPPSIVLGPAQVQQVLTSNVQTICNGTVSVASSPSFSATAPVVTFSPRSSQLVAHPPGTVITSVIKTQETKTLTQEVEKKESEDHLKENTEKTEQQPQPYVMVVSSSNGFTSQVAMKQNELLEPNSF

One experiment has as its target T1, ERG (UniProt P11308).
T1 sequence: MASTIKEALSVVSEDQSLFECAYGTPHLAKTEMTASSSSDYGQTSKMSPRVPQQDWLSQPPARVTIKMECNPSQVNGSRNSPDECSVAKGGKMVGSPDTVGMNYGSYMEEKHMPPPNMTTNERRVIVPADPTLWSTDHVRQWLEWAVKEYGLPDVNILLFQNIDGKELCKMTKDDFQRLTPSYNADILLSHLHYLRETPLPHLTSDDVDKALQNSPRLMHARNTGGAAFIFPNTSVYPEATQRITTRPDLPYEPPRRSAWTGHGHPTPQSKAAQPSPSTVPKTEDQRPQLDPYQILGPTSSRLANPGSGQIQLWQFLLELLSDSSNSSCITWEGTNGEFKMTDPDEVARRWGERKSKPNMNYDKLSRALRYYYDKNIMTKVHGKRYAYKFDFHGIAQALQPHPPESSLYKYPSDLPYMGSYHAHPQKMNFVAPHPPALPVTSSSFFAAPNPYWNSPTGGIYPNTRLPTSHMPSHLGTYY

A further experiment addresses T2, ELK4 (UniProt P28324-2).
T2 sequence: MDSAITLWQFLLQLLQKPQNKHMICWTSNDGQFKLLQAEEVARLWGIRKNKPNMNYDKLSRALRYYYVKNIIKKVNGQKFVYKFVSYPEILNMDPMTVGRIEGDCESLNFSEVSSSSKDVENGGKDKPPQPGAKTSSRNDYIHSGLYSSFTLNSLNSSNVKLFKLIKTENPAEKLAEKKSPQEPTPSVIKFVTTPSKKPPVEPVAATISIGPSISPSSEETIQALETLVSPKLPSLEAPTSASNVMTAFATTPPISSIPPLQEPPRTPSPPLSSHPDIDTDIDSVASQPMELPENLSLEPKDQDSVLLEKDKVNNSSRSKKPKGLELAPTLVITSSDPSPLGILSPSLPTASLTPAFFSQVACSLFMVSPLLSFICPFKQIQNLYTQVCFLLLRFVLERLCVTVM

Another experiment has as its target T3, ETV4 (UniProt P43268).
T3 sequence: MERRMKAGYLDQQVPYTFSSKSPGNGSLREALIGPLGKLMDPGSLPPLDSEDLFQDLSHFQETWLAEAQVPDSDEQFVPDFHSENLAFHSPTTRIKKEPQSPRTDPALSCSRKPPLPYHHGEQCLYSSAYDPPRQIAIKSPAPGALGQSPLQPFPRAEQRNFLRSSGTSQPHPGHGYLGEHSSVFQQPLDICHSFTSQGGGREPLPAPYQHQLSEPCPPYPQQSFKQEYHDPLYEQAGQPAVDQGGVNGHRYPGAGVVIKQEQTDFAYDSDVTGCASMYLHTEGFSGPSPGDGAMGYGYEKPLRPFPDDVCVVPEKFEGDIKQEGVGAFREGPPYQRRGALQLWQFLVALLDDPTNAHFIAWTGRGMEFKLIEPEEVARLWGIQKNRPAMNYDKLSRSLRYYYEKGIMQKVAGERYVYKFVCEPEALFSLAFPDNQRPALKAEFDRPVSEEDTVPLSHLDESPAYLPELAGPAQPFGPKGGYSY

Another experiment has as its target ETV1 (UniProt P50549).
A further experiment deals with ELF1 (UniProt P32519).
The next experiment concerns the target T4, ERF (UniProt P50548).
T4 sequence: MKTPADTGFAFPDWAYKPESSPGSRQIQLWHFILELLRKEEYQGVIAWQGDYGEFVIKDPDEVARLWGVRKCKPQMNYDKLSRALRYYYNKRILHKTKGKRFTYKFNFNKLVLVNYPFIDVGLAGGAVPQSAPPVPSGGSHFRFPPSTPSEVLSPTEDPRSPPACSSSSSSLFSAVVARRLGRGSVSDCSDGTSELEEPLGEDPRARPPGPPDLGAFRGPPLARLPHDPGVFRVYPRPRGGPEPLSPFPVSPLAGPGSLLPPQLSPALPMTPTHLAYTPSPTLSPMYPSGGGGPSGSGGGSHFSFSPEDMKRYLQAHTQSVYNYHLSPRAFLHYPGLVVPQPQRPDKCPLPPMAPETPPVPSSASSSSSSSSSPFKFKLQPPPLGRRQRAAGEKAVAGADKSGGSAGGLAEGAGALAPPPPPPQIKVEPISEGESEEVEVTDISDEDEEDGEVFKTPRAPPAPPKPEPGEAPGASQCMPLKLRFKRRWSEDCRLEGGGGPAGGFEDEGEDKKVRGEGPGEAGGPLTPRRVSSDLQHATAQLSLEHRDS

The entries are a selection whose mix differs from that of the whole data set. For some of these results: At the low end of the ranking the order means little. Some of the results follow. For some of these results: Construct or isoform of the protein are uncertain.

The results in this text go back to article PMC7862700.

TGTCTC: the binding signal with ERG turned out to be 1.23; with ELK4, 1.11; with ETV4, 1.33.

Turning to CCCCCA, the binding signal worked out at 1.19 with ELK4 and 1.22 with ETV4.

With GGAACA, the binding signal in the experiment with ELK4 is 0.936; in the experiment with ETV4, 1.04.

On to AATTCA, for which the binding signal is 1.26 in the experiment with ELK4 and 1.31 in the experiment with ETV4.

As for GCTCCT, the binding signal with ELK4 turned out to be 1.33; with ETV4 it was 1.45.

Turning to CTATGA, the binding signal in the experiment with ELK4 came out at 0.973; in the experiment with ETV4, 1.13.

In the case of CCCGTT, the binding signal with ELK4 came to 1.06; with ETV4 it was 1.22.

For ATCTGA, the binding signal with ELK4 turned out to be 1.2; with ETV4, 1.16.

For TTGCGC, the binding signal came to 1.02 in the experiment with ERG, 0.955 in the experiment with ELK4 and 1.04 in the experiment with ETV4.

Consider CAAAAC, for which the values for the binding signal with ELK4 and with ETV4 were 1.28 and 1.29, respectively.

As for TAAACA, the values for the binding signal with ELK4 and with ETV4 were 1.37 and 1.17, respectively.

For GCCTTC, the results for the binding signal with ELK4 and with ETV4 were 1.64 and 1.63, respectively.

With TAAGGT, the binding signal in the experiment with ELK4 and with ETV4 was 1.06 throughout.

On to ATGGAC, for which the binding signal in the experiment with ERG came to 1.16; in the experiment with ELK4 it was 1.17; with ETV4 it was 1.21.

For CTCGTG, the binding signal with ERG came to 0.997; with ELK4, 0.971; in the experiment with ETV4, 1.06.

Regarding GATGAT, the results for the binding signal with ELK4 and with ETV4 were 1.26 and 1.41, respectively.

CCTGAT: the binding signal with ELK4 was 1.5; in the experiment with ETV4, 1.35.

For CTGAAT, the binding signal with ELK4 amounted to 1.31; with ETV4, 1.36.

With TACACC, the results for the binding signal with ELK4 and with ETV4 were 1.16 and 1.29, respectively.

On to ATCAAT, for which the binding signal with ELK4 is 0.984; with ETV4, 1.13.

Consider ATGTCT, for which the values for the binding signal in the experiment with ELK4 and in the experiment with ETV4 were 1.07 and 1.31, respectively.

For TCATTC, the values for the binding signal with ERG, with ELK4 and in the experiment with ETV4 were 1.27, 1.34 and 1.23, respectively.

As to TTTACT, the binding signal was determined as 1.43 with ERG, 1.66 with ELK4 and 1.45 in the experiment with ETV4.

Regarding CACTCG, the binding signal was 1.15 with ERG, 1.24 with ELK4 and 1.11 with ETV4.

As to TACGAA, the binding signal with ERG was found to be 1.23; in the experiment with ELK4 it was 1.23; with ETV4 it was 1.32; in the experiment with ETV1, 1.24.

Consider CTCTTG, for which the binding signal is 1.52 with ELK4, 1.4 in the experiment with ETV4 and 1.41 with ETV1.

In the case of ATCCCC, the binding signal came out at 1.52 with ERG, 1.5 with ELF1, 1.44 with ELK4 and 1.44 in the experiment with ETV4.

Take CCGAAG: the binding signal with ERG is 0.977; with ELK4, 1.2; with ETV4, 1.06; in the experiment with ERF it was 1.16.

As for AACTGC, the binding signal in the experiment with ERG was determined as 1.32; with ELK4 it was 1.33; in the experiment with ETV4, 1.32; with ERF, 1.22.

GAATCT: the binding signal with ERG was determined as 1.04; with ELK4 it was 1.08; with ETV4, 1.07; with ETV1 it was 1.08.

For ATGACA, the binding signal was 1.32 with ERG, 1.19 with ELK4, 1.34 in the experiment with ETV4 and 1.28 with ETV1.

With TACTAG, the binding signal with ELK4 amounted to 0.976; in the experiment with ETV4 it was 1; with ETV1, 0.902.

For the sequence TAAACG, the binding signal came out at 1.09 in the experiment with ERG, 1.2 with ELK4, 1.11 in the experiment with ETV4 and 1.13 in the experiment with ETV1.

With TAATGT, the binding signal with ELK4 is 1.19; with ETV4, 1.1; in the experiment with ETV1 it was 1.16.

As for ATCGTC, the binding signal with ERG turned out to be 1.03; with ELF1, 1.05; in the experiment with ELK4, 0.908; in the experiment with ETV4, 1.1.

With ATGATA, the binding signal in the experiment with ERG was 1.26; with ELK4, 1.27; with ETV4 it was 1.22.

ATGGGT: the results for the binding signal with ELK4, in the experiment with ETV4 and with ETV1 were 1.33, 1.33 and 1.21, respectively.

Turning to TGGAAA, the binding signal amounted to 1.11 with ERG, 0.993 in the experiment with ELK4, 1.06 with ETV4 and 1.08 with ERF.

AACCCA: the binding signal with ERG was found to be 1.06; in the experiment with ELK4, 1.08; in the experiment with ETV4, 1.07; in the experiment with ETV1, 0.99.

In the case of TAAGAT, the binding signal came to 1.21 with ERG, 1.29 with ELK4, 1.2 in the experiment with ETV4 and 1.28 with ETV1.

With GGTATA, the binding signal turned out to be 1.1 with ELK4, 1.11 in the experiment with ETV4 and 1.11 with ETV1.

For the sequence GAAAGA, the binding signal was 1.02 with ERG, 1.01 with ELK4, 0.933 with ETV4 and 0.959 with ERF.
